Experimental data published in paper PMC10763615 (RSC Chemical Biology, 2023).
Strings that start with PEPTIDE1 are HELM notation: dots part the residues, brackets hold end groups and non-standard residues.

Assay: general procedure: Fmoc solid-phase peptide synthesis; Fmoc-PAL AM resin (Novabiochem) pre-loaded with GSGSDYKDDDDK-NH2; DIC / Oxyma / collidine
Conditions: whole synthesis, analytical HPLC/UPLC

PEPTIDE1{[ac].M.C.H.I.R.Y.W.Q.L.V.R.K.H.C.G.S.G.S.E.E.G.S.G.S.D.Y.K.D.D.D.D.K.[am]}$PEPTIDE1,PEPTIDE1,3:R3-15:R3$$$V2.0
crude HPLC purity: 59.54%

PEPTIDE1{[ac].M.C.H.I.T.I.Y.K.I.L.R.Y.C.G.S.G.S.D.Y.K.D.D.D.D.K.[am]}$PEPTIDE1,PEPTIDE1,3:R3-14:R3$$$V2.0
crude HPLC purity: 42.81%

PEPTIDE1{[ac].M.C.H.I.W.Y.F.N.N.Q.F.H.Y.V.C.G.S.G.S.D.Y.K.D.D.D.D.K.[am]}$PEPTIDE1,PEPTIDE1,3:R3-16:R3$$$V2.0
crude HPLC purity: 40.00%

PEPTIDE1{[ac].M.C.H.L.A.Y.Y.L.A.F.R.S.C.G.S.G.S.D.Y.K.D.D.D.D.K.[am]}$PEPTIDE1,PEPTIDE1,3:R3-14:R3$$$V2.0
crude HPLC purity: 54.88%
final HPLC purity: 88.8%

PEPTIDE1{[ac].M.C.H.L.L.Y.Y.K.L.F.H.S.C.G.S.G.S.D.Y.K.D.D.D.D.K.[am]}$PEPTIDE1,PEPTIDE1,3:R3-14:R3$$$V2.0
crude HPLC purity: 54.80%

PEPTIDE1{[ac].M.C.H.R.H.L.Y.Y.W.R.L.F.H.S.C.G.S.G.S.E.E.G.S.G.S.D.Y.K.D.D.D.D.K.[am]}$PEPTIDE1,PEPTIDE1,3:R3-16:R3$$$V2.0
crude HPLC purity: 38.56%

PEPTIDE1{[ac].M.C.H.R.Y.I.Y.L.D.Y.W.H.C.G.S.G.S.D.Y.K.D.D.D.D.K.[am]}$PEPTIDE1,PEPTIDE1,3:R3-14:R3$$$V2.0
crude HPLC purity: 55.61%

PEPTIDE1{[ac].M.C.H.V.I.L.W.R.S.W.R.Y.C.G.S.G.S.D.Y.K.D.D.D.D.K.[am]}$PEPTIDE1,PEPTIDE1,3:R3-14:R3$$$V2.0
crude HPLC purity: 64.78%
final HPLC purity: 69.6%

PEPTIDE1{[ac].M.C.I.F.D.L.F.L.P.F.I.F.C.G.S.G.S.D.Y.K.D.D.D.D.K.[am]}$PEPTIDE1,PEPTIDE1,3:R3-14:R3$$$V2.0
crude HPLC purity: 0%
final HPLC purity: 91.3%

PEPTIDE1{[ac].M.C.I.H.R.L.S.D.F.W.V.V.C.G.S.G.S.D.Y.K.D.D.D.D.K.[am]}$PEPTIDE1,PEPTIDE1,3:R3-14:R3$$$V2.0
crude HPLC purity: 54.65%

PEPTIDE1{[ac].M.C.I.K.D.L.H.L.F.Y.Y.L.L.C.G.S.G.S.D.Y.K.D.D.D.D.K.[am]}$PEPTIDE1,PEPTIDE1,3:R3-15:R3$$$V2.0
crude HPLC purity: 59.90%

PEPTIDE1{[ac].M.C.I.K.M.F.L.A.H.K.R.F.C.G.S.G.S.D.Y.K.D.D.D.D.K.[am]}$PEPTIDE1,PEPTIDE1,3:R3-14:R3$$$V2.0
crude HPLC purity: 0%
final HPLC purity: 92.3%

PEPTIDE1{[ac].M.C.I.K.T.F.L.L.W.R.S.S.C.G.S.G.S.D.Y.K.D.D.D.D.K.[am]}$PEPTIDE1,PEPTIDE1,3:R3-14:R3$$$V2.0
crude HPLC purity: 55.56%

PEPTIDE1{[ac].M.C.I.L.L.Y.K.V.L.R.G.R.C.G.S.G.S.D.Y.K.D.D.D.D.K.[am]}$PEPTIDE1,PEPTIDE1,3:R3-14:R3$$$V2.0
crude HPLC purity: 72.16%

PEPTIDE1{[ac].M.C.I.R.Y.L.F.Y.Y.L.I.S.H.C.G.S.G.S.D.Y.K.D.D.D.D.K.[am]}$PEPTIDE1,PEPTIDE1,3:R3-15:R3$$$V2.0
crude HPLC purity: 40.68%

PEPTIDE1{[ac].M.C.I.T.R.K.N.K.W.E.E.W.R.P.C.G.S.G.S.D.Y.K.D.D.D.D.K.[am]}$PEPTIDE1,PEPTIDE1,3:R3-16:R3$$$V2.0
crude HPLC purity: 61.82%

PEPTIDE1{[ac].M.C.I.Y.R.L.S.D.F.W.A.V.C.G.S.G.S.D.Y.K.D.D.D.D.K.[am]}$PEPTIDE1,PEPTIDE1,3:R3-14:R3$$$V2.0
crude HPLC purity: 34.87%

PEPTIDE1{[ac].M.C.I.Y.R.L.S.D.F.W.V.E.C.G.S.G.S.D.Y.K.D.D.D.D.K.[am]}$PEPTIDE1,PEPTIDE1,3:R3-14:R3$$$V2.0
crude HPLC purity: 51.51%
final HPLC purity: 93.1%

PEPTIDE1{[ac].M.C.I.Y.R.L.S.D.F.W.V.V.C.G.S.G.S.D.Y.K.D.D.D.D.K.[am]}$PEPTIDE1,PEPTIDE1,3:R3-14:R3$$$V2.0
crude HPLC purity: 62.55%
final HPLC purity: 55.0%

PEPTIDE1{[ac].M.C.K.E.Y.E.I.L.W.Y.K.L.Q.Y.C.G.S.G.S.D.Y.K.D.D.D.D.K.[am]}$PEPTIDE1,PEPTIDE1,3:R3-16:R3$$$V2.0
crude HPLC purity: 48.94%

PEPTIDE1{[ac].M.C.K.I.W.Y.V.D.H.K.F.W.W.V.C.G.S.G.S.D.Y.K.D.D.D.D.K.[am]}$PEPTIDE1,PEPTIDE1,3:R3-16:R3$$$V2.0
crude HPLC purity: 43.18%

PEPTIDE1{[ac].M.C.K.K.H.L.L.Y.Y.L.I.A.C.G.S.G.S.D.Y.K.D.D.D.D.K.[am]}$PEPTIDE1,PEPTIDE1,3:R3-14:R3$$$V2.0
crude HPLC purity: 63.23%

PEPTIDE1{[ac].M.C.K.R.E.I.K.Y.W.L.V.F.C.G.S.G.S.D.Y.K.D.D.D.D.K.[am]}$PEPTIDE1,PEPTIDE1,3:R3-14:R3$$$V2.0
crude HPLC purity: 21.16%

PEPTIDE1{[ac].M.C.K.R.H.I.R.Y.W.Q.L.Y.V.C.G.S.G.S.E.E.G.S.G.S.D.Y.K.D.D.D.D.K.[am]}$PEPTIDE1,PEPTIDE1,3:R3-15:R3$$$V2.0
crude HPLC purity: 49.40%

PEPTIDE1{[ac].M.C.K.R.H.L.I.Y.Y.K.I.A.R.C.G.S.G.S.D.Y.K.D.D.D.D.K.[am]}$PEPTIDE1,PEPTIDE1,3:R3-15:R3$$$V2.0
crude HPLC purity: 68.57%

PEPTIDE1{[ac].M.C.K.Y.A.T.L.Q.W.Y.K.W.F.Y.C.G.S.G.S.D.Y.K.D.D.D.D.K.[am]}$PEPTIDE1,PEPTIDE1,3:R3-16:R3$$$V2.0
crude HPLC purity: 34.92%

PEPTIDE1{[ac].M.C.K.Y.S.K.D.L.W.L.Y.R.L.W.C.G.S.G.S.D.Y.K.D.D.D.D.K.[am]}$PEPTIDE1,PEPTIDE1,3:R3-16:R3$$$V2.0
crude HPLC purity: 34.45%

PEPTIDE1{[ac].M.C.L.A.Y.Y.L.A.F.H.S.L.C.G.S.G.S.D.Y.K.D.D.D.D.K.[am]}$PEPTIDE1,PEPTIDE1,3:R3-14:R3$$$V2.0
crude HPLC purity: 67.27%

PEPTIDE1{[ac].M.C.L.I.S.I.Y.K.V.L.K.H.C.G.S.G.S.D.Y.K.D.D.D.D.K.[am]}$PEPTIDE1,PEPTIDE1,3:R3-14:R3$$$V2.0
crude HPLC purity: 51.75%

PEPTIDE1{[ac].M.C.L.R.H.L.Y.E.P.Y.W.H.C.G.S.G.S.D.Y.K.D.D.D.D.K.[am]}$PEPTIDE1,PEPTIDE1,3:R3-14:R3$$$V2.0
crude HPLC purity: 63.49%

PEPTIDE1{[ac].M.C.L.V.S.I.Y.K.I.M.R.T.C.G.S.G.S.D.Y.K.D.D.D.D.K.[am]}$PEPTIDE1,PEPTIDE1,3:R3-14:R3$$$V2.0
crude HPLC purity: 71.68%
final HPLC purity: 100.0%

PEPTIDE1{[ac].M.C.L.W.H.Y.Y.K.I.F.R.R.Q.K.C.G.S.G.S.D.Y.K.D.D.D.D.K.[am]}$PEPTIDE1,PEPTIDE1,3:R3-16:R3$$$V2.0
crude HPLC purity: 57.28%

PEPTIDE1{[ac].M.C.L.W.Y.Y.L.Q.F.H.R.R.E.C.G.S.G.S.D.Y.K.D.D.D.D.K.[am]}$PEPTIDE1,PEPTIDE1,3:R3-15:R3$$$V2.0
crude HPLC purity: 27.66%

PEPTIDE1{[ac].M.C.N.I.I.L.Y.K.I.M.K.N.R.C.G.S.G.S.D.Y.K.D.D.D.D.K.[am]}$PEPTIDE1,PEPTIDE1,3:R3-15:R3$$$V2.0
crude HPLC purity: 34.38%

PEPTIDE1{[ac].M.C.N.I.L.L.Y.K.I.L.S.V.C.G.S.G.S.D.Y.K.D.D.D.D.K.[am]}$PEPTIDE1,PEPTIDE1,3:R3-14:R3$$$V2.0
crude HPLC purity: 52.57%

PEPTIDE1{[ac].M.C.N.L.S.I.I.H.G.Y.V.A.Y.I.C.G.S.G.S.D.Y.K.D.D.D.D.K.[am]}$PEPTIDE1,PEPTIDE1,3:R3-16:R3$$$V2.0
crude HPLC purity: 100.00%

PEPTIDE1{[ac].M.C.P.E.R.L.F.Y.W.L.L.V.C.G.S.G.S.D.Y.K.D.D.D.D.K.[am]}$PEPTIDE1,PEPTIDE1,3:R3-14:R3$$$V2.0
crude HPLC purity: 0%
final HPLC purity: 51.9%

PEPTIDE1{[ac].M.C.P.I.H.F.F.K.I.V.Y.R.H.C.G.S.G.S.E.E.G.S.G.S.D.Y.K.D.D.D.D.K.[am]}$PEPTIDE1,PEPTIDE1,3:R3-15:R3$$$V2.0
crude HPLC purity: 47.51%

PEPTIDE1{[ac].M.C.P.K.W.F.I.L.W.R.Q.L.C.G.S.G.S.D.Y.K.D.D.D.D.K.[am]}$PEPTIDE1,PEPTIDE1,3:R3-14:R3$$$V2.0
crude HPLC purity: 63.82%

PEPTIDE1{[ac].M.C.P.K.W.L.I.K.V.L.L.N.C.G.S.G.S.D.Y.K.D.D.D.D.K.[am]}$PEPTIDE1,PEPTIDE1,3:R3-14:R3$$$V2.0
crude HPLC purity: 63.09%

PEPTIDE1{[ac].M.C.P.K.Y.F.L.L.W.R.L.M.T.C.G.S.G.S.D.Y.K.D.D.D.D.K.[am]}$PEPTIDE1,PEPTIDE1,3:R3-15:R3$$$V2.0
crude HPLC purity: 75.8%

PEPTIDE1{[ac].M.C.P.R.W.I.Y.Y.Y.M.L.H.C.G.S.G.S.D.Y.K.D.D.D.D.K.[am]}$PEPTIDE1,PEPTIDE1,3:R3-14:R3$$$V2.0
crude HPLC purity: 69.38%

PEPTIDE1{[ac].M.C.P.V.I.I.Y.K.I.L.S.H.C.G.S.G.S.D.Y.K.D.D.D.D.K.[am]}$PEPTIDE1,PEPTIDE1,3:R3-14:R3$$$V2.0
crude HPLC purity: 57.48%

PEPTIDE1{[ac].M.C.P.Y.A.I.Y.W.Y.K.W.R.K.T.C.G.S.G.S.E.E.G.S.G.S.D.Y.K.D.D.D.D.K.[am]}$PEPTIDE1,PEPTIDE1,3:R3-16:R3$$$V2.0
crude HPLC purity: 49.15%

PEPTIDE1{[ac].M.C.P.Y.D.Y.Y.D.W.H.D.W.R.D.C.G.S.G.S.D.Y.K.D.D.D.D.K.[am]}$PEPTIDE1,PEPTIDE1,3:R3-16:R3$$$V2.0
crude HPLC purity: 53.42%

PEPTIDE1{[ac].M.C.P.Y.Y.V.Q.Y.W.R.V.F.C.G.S.G.S.D.Y.K.D.D.D.D.K.[am]}$PEPTIDE1,PEPTIDE1,3:R3-14:R3$$$V2.0
crude HPLC purity: 36.54%

PEPTIDE1{[ac].M.C.Q.Q.W.N.L.Y.T.R.H.W.H.S.C.G.S.G.S.D.Y.K.D.D.D.D.K.[am]}$PEPTIDE1,PEPTIDE1,3:R3-16:R3$$$V2.0
crude HPLC purity: 75.4%
final HPLC purity: 97.0%

PEPTIDE1{[ac].M.C.R.D.F.W.H.L.W.F.R.V.C.G.S.G.S.D.Y.K.D.D.D.D.K.[am]}$PEPTIDE1,PEPTIDE1,3:R3-14:R3$$$V2.0
crude HPLC purity: 42.96%

PEPTIDE1{[ac].M.C.R.E.I.R.Y.W.Q.L.W.Q.C.G.S.G.S.D.Y.K.D.D.D.D.K.[am]}$PEPTIDE1,PEPTIDE1,3:R3-14:R3$$$V2.0
crude HPLC purity: 40.28%

PEPTIDE1{[ac].M.C.R.E.I.R.Y.W.Q.L.Y.R.A.F.C.G.S.G.S.D.Y.K.D.D.D.D.K.[am]}$PEPTIDE1,PEPTIDE1,3:R3-16:R3$$$V2.0
crude HPLC purity: 19.95%
